PubChem BioAssay AID686943 – Drosophila RNAi Screening Center, 2013
The deposit covers about 23,000 reagents; shown is an unselected part of those with a known target gene and a result. 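Extra replicates exist only for a retested subset of genes; insulin dose and duration not given; both raised and lowered dpERK matter.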 The numbers tell different reagents against one gene apart. Names joined by + are all predicted targets of the reagent. No sequences are given here. Not stated in the record: the amount of reagent, the time to read-out.

- Aim: 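Fly genes whose loss alters ERK activation after insulin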 (primary screen)
- System: Drosophila S2R+ haemocyte-like cells expressing YFP-tagged ERK (Rolled)
- Reagents: long dsRNA against Drosophila genes
- Treatment: insulin stimulation versus unstimulated cells; dose and duration not given
- Read-out: 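Antibody staining for doubly phosphorylated ERK divided by ERK-YFP signal, as plate z-scores, in insulin-treated and untreated cells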
- Reading the numbers: replicate 1, z-score of dpERK with insulin and replicate 2, z-score of dpERK with insulin: higher = more active ERK per ERK-YFP after insulin; replicate 1, z-score of dpERK under basal conditions: higher = more basal active ERK per ERK-YFP; replicate 1, z-score of ERK-YFP with insulin: higher = more YFP-tagged ERK signal

The opening 2 entries, ahead of the listing:
| target | reagent | replicate 1, z-score of dpERK with insulin | replicate 2, z-score of dpERK with insulin | replicate 1, z-score of dpERK under basal conditions | replicate 1, z-score of ERK-YFP with insulin |
| --- | --- | --- | --- | --- | --- |
| CG31808 | 1 | -0.26 | -0.75 | -0.75 | -0.2 |
| Sgs8 (Salivary gland secretion 8) | 1 | -0.3 | -0.11 | 1.6 | 0.29 |

Results, from the start:
| target | reagent | replicate 1, z-score of dpERK with insulin | replicate 2, z-score of dpERK with insulin | replicate 1, z-score of dpERK under basal conditions | replicate 1, z-score of ERK-YFP with insulin |
| --- | --- | --- | --- | --- | --- |
| CG31808 | 1 | -0.26 | -0.75 | -0.75 | -0.2 |
| Sgs8 (Salivary gland secretion 8) | 1 | -0.3 | -0.11 | 1.6 | 0.29 |
| Eaat1 (Excitatory amino acid transporter 1) | 1 | 0.26 | 1.16 | 0.56 | 0.09 |
| CG11696 | 1 | -0.35 | 0 | -1.05 | 1.06 |
| CG34109 | 1 | 1.09 | 0.15 | -0.13 | -0.2 |
| CG34109 | 2 | -0.02 | 0.19 | -0.76 | 0.59 |
| CG34109 | 3 | 0.46 | -0.7 | 3.46 | 0.3 |
| cnc (cap-n-collar) | 1 | -1.57 | -0.22 | -1.15 | -1 |
| cnc (cap-n-collar) | 2 | -1.41 | -1.35 | -0.53 | 1.76 |
| cnc (cap-n-collar) | 3 | -1.14 | -0.24 | -1.69 | 1.02 |
| cnc (cap-n-collar) | 4 | -0.28 | 0 | -1.45 | 0.71 |
| CG12204 | 1 | -0.58 | -0.43 | -1.16 | 0.16 |
| CG17985 | 1 | 0.13 | -0.21 | 0.2 | 0.15 |
| CG13707 | 1 | 0.21 | 0.33 | 1.07 | 0.2 |
| alien + CG17906 | 1 | 1.25 | 0.57 | -0.41 | -1.26 |
| CG17002 | 1 | -0.09 | 0.06 | -0.74 | 0.41 |
| Daao2 (D-amino acid oxidase 2) | 1 | 0.26 | -0.28 | -0.12 | 0.85 |
| CG42749 | 1 | 0.71 | 0.34 | -0.42 | 0.18 |
| CG42749 | 2 | 0.52 | 0.48 | 1.4 | -0.47 |
| FBXO11 (F-box protein 11) | 1 | 0.36 | 0.22 | -0.32 | -2.6 |
| HLH3B (Helix loop helix protein 3B) | 1 | 0.33 | -0.12 | 0.6 | -0.36 |
| CG4239 | 1 | -1.15 | -0.96 | -1.36 | -0.89 |
| CG18581 | 1 | 0.83 | 1.15 | -0.05 | -0.16 |
